From PMC10163288
This is one part of the list.

B1: il10ra_site1_normal_mot_HHH_b1_07835_af2_000000063_0001_1_16_H_._ems_p1-16H-GBL-16H-GABBL-16H_0303_0001_0001_0002_af2_0001_0000500026_0000002_0_af2pred_0001 (protein)
chain: SSSSSEVAHLLFEALRAAARNGDKEAFERIAQIAAKWLEGKLSPEEASELLQEIIEELRSSSSSS
B2: il10ra_site1_normal_mot_b26a303360aa2756ef5b79665ce52f45_0001_000000179_0001_1_11_H_._HHH_b2_04039_0001_0000200018_0000001_0 (protein)
chain: SSSSSDVAQRVRELLEEAIEAQERGDEELVEELLEEAERLAKERNNTVLRFSVEHFARANSSSSS
B3: il10ra_site1_sap_26_mot_HHH_b1_03763_000000278_0001_22_38_H_._HHH_b1_02328_af2_0001_0000400019_0000001_0_0001 (protein)
chain: SSSSDDREELEELLEEIQRLLEEGDPERALELLQEALRFAFQLGDEEILQRLWELAKRVASSSSS
B4: il10ra_site1_normal_mot_HHH_b1_01886_000000262_0001_1_18_H_._HHH_b1_06187_0001_0000500035_0000001_0 (protein)
chain: SSSSTLEWSVKFALRAARLLREAGNPEQAEELLEKLLELLEETGDEELFEEVERLLEELRKSSSS
B5: il10ra_site1_normal_mot_HHH_b2_05323_000000159_0001_1_18_H_._HHH_b1_08208_0001_0000300015_0000001_0 (protein)
chain: SSSSSSDEALRLVLEAFRLALRGNPEEAEKVLEEALKEAEEENDPRLERAIRDLLKVLSSSSSSS
B6: il10ra_site1_normal_mot_HHH_b1_01874_000000035_0001_1_20_H_._HHH_b2_04719_0001_0000100004_0000002_0_af2pred_0001 (protein)
chain: SSSSSSSKVEEIFRLIRKALHIDDEEEAREILERALELAEELNNEIALIAAELALRQLSSSSSSS
B7: il10ra_site1_sap_17_mot_HHH_b2_07535_000000205_0001_20_36_H_._HHH_b2_06317_0001_0000100012_0000001_0_0001 (protein)
chain: SSSSSRREEVWRLLREALEARARGNPELVEELLEEAKRLAEEANSEVLLRVVEFMERALLSSSSS
B8: il10ra_site1_normal_mot_HHH_b2_03220_af2_000000223_0001_23_40_H_._HHH_b1_07968_af2_0001_0000200015_0000001_0_af2pred_0001 (protein)
chain: SSSSSEEAERAIELLREALRLRANGNPEEAKEVLEEAEELAEELGSEQLLRLIRLVLEQLSSSSS
B9: il10ra_site1_normal_mot_HHH_b1_05126_000000010_0001_38_52_H_._HHH_b2_05985_af2_0001_0000600013_0000001_1 (protein)
chain: SSSSDEEELEELLEILKELVEKNDAERFYEVAREAIELASELNDEEVQRELMELIKLLFGSSSSS
B10: il10ra_site1_sap_20_mot_HHH_b2_07144_000000289_0001_1_18_H_._HHH_b2_07383_0001_0000300040_0000001_1_0001 (protein)
chain: SSSSSSDLEELVEELEEAVREGDTEKAARIAQEAVRLAFQLSDEEALQELWELIKEVASSSSSSS
B11: il10ra_site1_normal_mot_HHH_b2_06979_000000158_0001_42_57_H_._HHH_b1_00897_af2_0001_0000100002_0000002_0_af2pred_dldesign_0_af2pred (protein)
chain: SSSSSVEDTQEILRLLRKASELEDKEEALKVVEKAVELARKLGNEILLADAEYLLADVKAESSSS
B12: il10ra_site1_sap_9_mot_HHH_b2_04251_af2_000000037_0001_42_56_H_._HHH_b2_00851_0001_0000200012_0000001_0_0001 (protein)
chain: SSSSSREEAIRNMVEAARVLLKLITDPRLREELKELLEELEEEGDPELLRELQHLAAQILNSSSS
B13: il10ra_site1_sap_26_mot_HHH_b2_08004_000000101_0001_1_17_H_._HHH_b1_08451_af2_0001_0000500016_0000002_0_0001_af2pred_dldesign_0_af2pred (protein)
chain: SSSSDVEAEVERLTEEAKRLIEEGKKEEARELLLRMRRLASEAKDGKLWQKVVEVTKLLLESSSS
B14: il10ra_site1_sap_14_mot_HHH_b1_03333_000000091_0001_1_17_H_._HHH_b2_03652_af2_0001_0000200011_0000001_0_0001 (protein)
chain: SSSSDLEEEAEELAEEAIELARKRGNRAAVFLLEQALKALEIAGDPKAAEVLYSLARIVLSSSSS
B15: il10ra_site1_sap_20_mot_HHH_b2_00335_000000038_0001_43_57_H_._HHH_b2_00335_0001_0000100004_0000001_0_0001_af2pred_0001 (protein)
chain: SSSSNLEQDVRVALKAVRILIEKGDPEDAQKALELAKRLAREANNEELEELIEEVERELHSSSSS
B16: il10ra_site1_normal_mot_HHH_b2_05323_000000159_0001_1_18_H_._HHH_b1_01365_0001_0000200019_0000001_0 (protein)
chain: SSSSDEEDQEVLELSKEIFRLLLRGNEEEARELLEKAIELAREIGDERLLRVLEDLLDVASSSSS
B17: il10ra_site1_normal_mot_HHH_b1_02809_af2_000000277_0001_40_57_H_._HHH_b1_05309_af2_0001_0000100001_0000003_0_af2pred_0001 (protein)
chain: SSSSSSDRDERSIRILIEAAKRIEDEEEARTALEFALRLAEALGDEELQEEVERLLEEISSSSSS
B18: il10ra_site1_normal_mot_HHH_b1_02062_000000185_0001_1_20_H_._HHH_b2_01313_0001_0000300018_0000001_0 (protein)
chain: SSSSSREAYELSRRAAEALSEGNYEEAEELAEEAFRIAEEENNEVVLHTIEYLLRVLRRRGSSSS
B19: il10ra_site1_normal_mot_HHH_b2_03220_af2_000000223_0001_23_40_H_._HHH_b1_06679_0001_0000100002_0000002_0_af2pred_dldesign_0_af2pred (protein)
chain: SSSSSNQDVLDLILRVRELIAAGRYEEARRLLEEARALAAALGSELFDGPLARLEAEIEAASSSS
B20: il10ra_site1_sap_15_mot_7abaf38a3307e851c9e6880adce6b300_0001_1_af2_000000155_0001_1_14_H_._HHH_b1_06012_0001_0000600024_0000001_0_0001 (protein)
chain: SSSSSEEEERIEQLIEEAEEVLEEGNPQKAIELLLEAVRLALRASDPELLRRIWKLIKEVASSSS
B21: il10ra_site1_normal_mot_HHH_b2_03220_af2_000000223_0001_23_40_H_._HHH_b1_05348_af2_0001_0000100005_0000001_0 (protein)
chain: SSSSSSEENEEVWRLIREALEVAEKDPEEAKEILEEAEKLAEEANNPLLQIQLRFLLRQLSSSSS
B22: il10ra_site1_sap_17_mot_HHH_b2_03425_000000200_0001_22_39_H_._HHH_b1_03616_0002_0000100007_0000001_1_0001 (protein)
chain: SSSNAAEEVWELLRKALELRARGDEEEAEEVVEEAEEIAREGGDRVMEVVIEFLLEQIRRLSSSS
B23: il10ra_site1_sap_14_mot_HHH_b1_01307_000000115_0001_1_18_H_._HHH_b2_00988_0001_0000300026_0000001_0_0001 (protein)
chain: SSSSSDHEDNRRIYELIQRAFEISDEEERRELLEEAQELAEELGNQLFLFAVRAAQRALLSSSSS
B24: il10ra_site1_sap_14_mot_HHH_b2_00943_af2_000000149_0001_1_17_H_._HHH_b1_08763_0001_0000100006_0000002_0_0001 (protein)
chain: SSSSDEAKQRAEELLEEAEELVEKGDPREALRVLAEAVKVALEGGDEELLQEIWRVIKEASSSSS
B25: il10ra_site1_sap_20_mot_HHH_b1_08009_000000194_0001_1_19_H_._HHH_b1_07350_0001_0000800039_0000001_0_0001 (protein)
chain: SSSSSSDYERSVKTMVKAARQLEDPEYARLALRFALAIAEAGNDEELQEEVRELLEELSSSSSSS
B26: il10ra_site1_normal_mot_HHH_b1_03333_000000091_0001_1_17_H_._HHH_b2_08380_af2_0001_0000300029_0000001_0 (protein)
chain: SSSSDEEFYEEVRRAIEKAVELQRNGNPEEAERLLEEVLEKAEELGNFAAAWAIRHLLRLLSSSS
B27: il10ra_site1_normal_mot_HHH_b2_02053_af2_000000006_0001_3_19_H_._HHH_b2_00530_af2_0001_0000300012_0000001_0 (protein)
chain: SSSSSSNEAERIYELLRRALQIDDEEEARELLEEAEELAKELGSEVAEITIRYALRQLSSSSSSS
B28: il10ra_site1_normal_mot_HHH_b1_02062_000000185_0001_1_20_H_._HHH_b1_06709_0001_0000300031_0000002_0 (protein)
chain: SSSSTSEEIYRLSRELAEAISEGDEELIEELLEEIRRLIEELGNLNLRFILEFLEKDARASSSSS
B29: il10ra_site1_sap_20_mot_HHH_b1_02766_af2_000000078_0001_42_56_H_._HHH_b2_04892_0001_0001000047_0000001_0_0001 (protein)
chain: SSSSDELSEEAMKLIERASELDQNGNPEEAKEVLERAEELAEEAGNRVLAWNIRFLLRRLSSSSS
B30: il10ra_site1_sap_22_mot_HHH_b2_04681_000000155_0001_43_57_H_._HHH_b2_03205_0001_0000100004_0000002_0_0001 (protein)
chain: SSSSSDEEEVEELLRRAEELRERGNPEEAAELLQRAVRIAAQAQNEELLREIWEVVKRLGSSSSS
B31: il10ra_site1_sap_17_mot_HHH_b2_04976_af2_000000223_0001_1_17_H_._HHH_b1_00122_0001_0000100010_0000002_0_0001 (protein)
chain: SSSSSDDERYVELALRFAEWLIEAGDPRAARIVLRVALRLAEEINNPELFERIEELLEELSSSSS
B32: il10ra_site1_normal_mot_HHH_b1_00999_000000080_0001_41_55_H_._HHH_b1_07298_0001_0000400050_0000001_1 (protein)
chain: SSSSDYEEEVKELLEELRRLLEEGDREKFLRLVLRVLRLILRNNDAELLQELWEIVREWGKSSSS
B33: il10ra_site1_normal_mot_HHH_b1_08622_000000192_0001_23_40_H_._HHH_b1_00172_0001_0000200022_0000001_0 (protein)
chain: SSSSSSALESLRWALEIAVEDGNEELLKKLLEYARRVLENLDEEEREQLEELLELAEEALSSSSS
B34: il10ra_site1_normal_mot_0750aae41c39e4229e2ea8fa354cc919_0001_1_000000144_0001_37_51_H_._HHH_b1_03276_0001_0000200009_0000001_0_af2pred_0001 (protein)
chain: SSSDAEQALLAAEVALRILLEDGNPERAQRALHFWAHLDEAAGNPELAEELREIFERLEEELSSS
B35: il10ra_site1_normal_mot_HHH_b1_05056_000000217_0001_1_20_H_._HHH_b2_04661_af2_0001_0000200010_0000002_0 (protein)
chain: SSSSDEEELEELLEELERLAKEGDRERFLRLVLRLSELIFRLGDEEALQLLWELVQRFARRSSSS
B36: il10ra_site1_sap_22_mot_HHH_b1_06577_000000038_0001_1_17_H_._7e5d6dae1157c95132ff0874b0fd9e6b_0001_1_af2_0001_0000900038_0000001_0_0001 (protein)
chain: SSSSSDEQQKLLELLKRAFRLALRGNPEEAKELLEEAEELAEELGDERALKMVRDLLRSLSSSSS
B37: il10ra_site1_normal_mot_8756ee2cf497b5429c717dfc0c0bcfd6_0001_000000186_0001_1_13_H_._HHH_b1_07134_af2_0001_0000300016_0000001_0_af2pred_0001 (protein)
chain: SSSSSEELRELIKLSRRLVELSLEGDEEEFEKLFEEAERIARELNDELALFLLESLERKFNSSSS

What follows are binders tested against il10ra, Q13651 (assay: yeast display titration).

Apparent Kd, inactive:
B1 no binding seen, B2 no binding seen, B3 no binding seen, B4 no binding seen, B5 no binding seen, B6 no binding seen, B7 no binding seen, B8 no binding seen, B9 no binding seen, B10 no binding seen, B11 no binding seen, B12 no binding seen, B13 no binding seen, B14 no binding seen, B15 no binding seen, B16 no binding seen, B17 no binding seen, B18 no binding seen, B19 no binding seen, B20 no binding seen, B21 no binding seen, B22 > 607 nM, B23 no binding seen, B24 no binding seen, B25 no binding seen, B26 no binding seen, B27 no binding seen, B28 no binding seen, B29 no binding seen, B30 no binding seen, B31 no binding seen, B32 no binding seen, B33 no binding seen, B34 no binding seen, B35 no binding seen, B36 no binding seen, B37 no binding seen
